The supplement of paper PMC8326762, “A Small Molecule Inhibitor of Pex3–Pex19 Interaction Disrupts Glycosome Biogenesis and Causes Lethality in Trypanosoma brucei” (Frontiers in Cell and Developmental Biology, 2021)
Structures can show the parent of a compound that is named as a salt. The list shows a part of the results. Single values of this set are uncertain.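 Optical density at 600 nm measured yeast growth. Because the two-hybrid strains grew without histidine, growth required Pex3–Pex19 binding. Trypanosome selectivity meant a compound inhibited the trypanosome-pair strain's growth by more than 65% but the human-pair strain's by less than 65%.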

Assays:
[1] = system: Saccharomyces cerevisiae HF7c pdr5Δ; assay: general growth inhibition of yeast HF7c pdr5Δ in -Leu -Trp medium, relative to DMSO; higher = stronger general growth inhibition; details: 100 µM; 24 h
[2] = system: human PEX3-PEX19 interaction (yeast two-hybrid); assay: growth inhibition of yeast two-hybrid strain reporting HsPex3-HsPex19 interaction, relative to DMSO; higher = stronger inhibition of human Pex3-Pex19 interaction / growth; details: 100 µM; 24 h; 3-aminotriazole 10 mM
[3] = system: T. brucei Pex3-Pex19 interaction (yeast two-hybrid); assay: growth inhibition of yeast two-hybrid strain reporting TbPex3-TbPex19 interaction, relative to DMSO; higher = stronger inhibition of T. brucei Pex3-Pex19 interaction / growth; details: 100 µM; 24 h

Row | Compound | general growth inhibition [1] | growth inhibition [2] | growth inhibition [3]
1 | C1COC(NC(C2CC2)C2CC2)=N1 [Rilmenidine hemifumarate] | 48.8% | 46.1% | 67.1%
2 | COc1ccc(-c2ccc(=N)n(CCCC(=O)O)n2)cc1 | 53.9% | 44.2% | 62.1%
3 | Nc1ncnc2c1c(-c1ccc(Oc3ccccc3)cc1)cn2C1CCCC1 | 54.2% | 35.7% | 77.6%
4 | Cc1nnc(C(C)C)n1C1C[C@H]2CC[C@@H](C1)N2CC[C@H](NC(=O)C1CCC(F)(F)CC1)c1ccccc1 (stereo in doubt) [Maraviroc] | 46.5% | 43% | 61.3%
5 | CC(C)C[C@H](NP(=O)(O)O[C@H]1O[C@H](C)[C@@H](O)[C@H](O)[C@@H]1O)C(=O)N[C@@H](Cc1c[nH]c2ccccc12)C(=O)O [Phosphoramidon disodium] | 51.6% | 50.8% | 68.2%
6 | CCN(CC)CC#CCOC(=O)C(O)(c1ccccc1)C1CCCCC1 (stereo not given) [Oxybutynin Chloride] | 47.7% | 34.5% | 64.3%
7 | OC1(c2ccc(Cl)cc2)CCN(Cc2c[nH]c3ccccc23)CC1 | 35.6% | 34.7% | 66.1%
8 | NS(=O)(=O)c1cc(C(=O)O)c(NCc2ccco2)cc1Cl [Furosemide] | 39.6% | 40.7% | 60.4%
9 | Fc1ccc(C(c2ccc(F)cc2)N2CCN(C/C=C/c3ccccc3)CC2)cc1 [Flunarizine dihydrochloride] | 86.2% | 84.8% | 71.3%
10 | CC(C)(Oc1ccc(CCNC(=O)c2ccc(Cl)cc2)cc1)C(=O)O [Bezafibrate] | 26.7% | 39.6% | 49%
11 | CCCCc1oc2ccccc2c1C(=O)c1cc(I)c(OCCN(CC)CC)c(I)c1 [Amiodarone hydrochloride] | 76.5% | 67.4% | 72.6%
12 | O=C1CC2(CCCC2)CC(=O)N1CCCCN1CCN(c2ncccn2)CC1 [Buspirone hydrochloride] | 34.9% | 36.5% | 49.4%
13 | S=C(Nc1ccccc1)Nc1nccs1 [1-Phenyl-3-(2-thiazolyl)-2-thiourea] | 56.3% | 42.4% | 61.3%
14 | CCN(CC)C(C)CN1c2ccccc2Sc2ccccc21 (stereo not given) [Ethopropazine hydrochloride] | 11.8% | 13.9% | 29.4%
15 | CCN1CCCC1CNC(=O)c1cc(S(N)(=O)=O)ccc1OC (racemic) [(±)-Sulpiride] | 18% | 12.6% | 37.3%
16 | Cc1cc(NC(=O)Nc2ccc3c(ccn3C)c2)sn1 | 39.4% | 43.4% | 60.8%
17 | COc1cc(/C=C/C(=O)N2CCC=CC2=O)cc(OC)c1OC [Piperlongumine] | 53.5% | 41.6% | 48.3%
18 | NC(N)=Nc1nc(CSCC/C(N)=N/S(N)(=O)=O)cs1 [Famotidine] | 39.2% | 41.5% | 60.7%
19 | NCCCCNCCCN [Spermidine trihydrochloride] | 20.4% | 19.5% | 45.2%
20 | CC1COc2c(N3CCN(C)CC3)c(F)cc3c(=O)c(C(=O)O)cn1c23 (stereo not given) [Ofloxacin] | 48.9% | 48.4% | 70.5%
21 | CCCCCCC(=O)OC1CC(C)(C)NC(C)(C)C1 [TMPH hydrochloride] | 15.8% | 4.92% | 28.5%
22 | COc1ccc2[nH]c([S@@+]([O-])Cc3ncc(C)c(OC)c3C)nc2c1 [Esomeprazole magnesium dihydrate] | 82.8% | 77.8% | 78.8%
23 | CCOC(=O)[N-]c1c[n+](N2CCOCC2)no1 [Molsidomine] | 16.1% | 10.2% | 36.5%
24 | Fc1ccc([C@@H]2CCNC[C@H]2COc2ccc3c(c2)OCO3)cc1 [Paroxetine hydrochloride hemihydrate (MW = 374.83)] | 37.6% | 38.2% | 61.9%
25 | NCCCCC(=O)O [5-Aminovaleric acid hydrochloride] | 35.9% | 34.9% | 56.2%
26 | Fc1ccc2[nH]c(CN3CCN(c4ccccn4)CC3)cc2c1 | 20.4% | 25.7% | 47.9%
27 | CC1CCN=C(N)S1 (racemic) [(±)-AMT hydrochloride] | 7.6% | 10.1% | 34.6%
28 | COc1ccc(C2CNC(=O)C2)cc1OC1CCCC1 (stereo not given) [Rolipram] | 51.4% | 45% | 54.5%

Molecules listed so far with a furan ring, fused or not (2):
Row | Compound | general growth inhibition [1] | growth inhibition [2] | growth inhibition [3]
8 | NS(=O)(=O)c1cc(C(=O)O)c(NCc2ccco2)cc1Cl [Furosemide] | 39.6% | 40.7% | 60.4%
11 | CCCCc1oc2ccccc2c1C(=O)c1cc(I)c(OCCN(CC)CC)c(I)c1 [Amiodarone hydrochloride] | 76.5% | 67.4% | 72.6%

(listing goes on)

Row | Compound | general growth inhibition [1] | growth inhibition [2] | growth inhibition [3]
29 | CC1=Nc2ccc(Cl)cc2S(=O)(=O)N1 [Diazoxide] | 10.4% | 14.9% | 35.2%
30 | Clc1ccc2c(c1)N=C(N1CCNCC1)c1ccccc1N2 [N-Desmethylclozapine] | 29.2% | 33% | 53.6%
31 | COc1cc2c(cc1OC)-c1c/c(=N\c3c(C)cc(C)cc3C)n(C)c(=O)n1CC2 [Trequinsin hydrochloride] | 67.3% | 51.1% | 64%
32 | C(=C\c1ccccc1)/CN1CCN(C(c2ccccc2)c2ccccc2)CC1 [Cinnarizine] | 5.26% | 7.7% | 16.8%
33 | O=C1c2ccccc2C(=O)c2c(NCCc3ccc(O)cc3)ccc(NCCc3ccc(O)cc3)c21 | -8.24% | -21.3% | -1.08%
34 | Nc1c2c(nc3ccccc13)CCCC2 [9-Amino-1,2,3,4-tetrahydroacridine hydrochloride] | 46.8% | 44% | 58.9%
35 | NC(=O)c1ccccc1 [Benzamide] | 32.9% | 35.1% | 53.9%
36 | NC(=O)C1=CN(C2OC(COP(=O)(O)OP(=O)(O)OC[C@H]3O[C@@H](n4cnc5c(N)ncnc54)C(OP(=O)(O)O)[C@H]3O)C(O)C2O)C=CC1 (stereo not given in full) [NADPH tetrasodium] | 9.51% | 7.23% | 34.1%
37 | Cn1c(=O)[nH]c2ncn(C)c2c1=O [1,7-Dimethylxanthine] | 36.6% | 48.4% | 68.9%
38 | O=C1N=C(O)NC1(c1ccccc1)c1ccccc1 [Phenytoin sodium] | 16.3% | 17.4% | 35%
39 | Cc1nc2n(c(=O)c1CCN1CCC(c3noc4cc(F)ccc34)CC1)CCCC2O (stereo not given) [Paliperidone] | 11.4% | 29.3% | 53.1%
40 | CC[C@H](NC(=O)c1c(C)c(-c2ccccc2)nc2ccccc12)c1ccccc1 | 67.7% | 50.5% | 59.5%
41 | COc1cc(/C=C(\C#N)C(=O)Nc2nnc(C(F)(F)F)s2)ccc1OCc1ccc(C(F)(F)F)cc1C(F)(F)F | 37.8% | 29.1% | 53.8%
42 | O=c1c(-c2ccc(O)cc2)coc2cc(O)cc(O)c12 [Genistein] | 26.1% | 26.8% | 27.5%
43 | CNCCc1cnc(CCC(c2ccccc2)c2ccccc2)[nH]1 [N-Methylhistaprodifen dioxalate salt] | 22.1% | 35.1% | 60.8%
44 | C[C@H](CCC(=O)NCCS(=O)(=O)O)[C@H]1CC[C@H]2[C@@H]3[C@H](O)C[C@@H]4C[C@H](O)CC[C@]4(C)[C@H]3C[C@H](O)[C@]12C [Sodium Taurocholate hydrate] | 44.5% | 39.6% | 53%
45 | Nc1nc2c(nc(Br)n2C2OC3COP(=O)(O)O[C@@H]3C2O)c(=O)[nH]1 (stereo not given in full) [8-Bromo-cGMP sodium] | 53.5% | 36.7% | 60.2%
46 | CNC[C@H](O)c1ccc(O)c(O)c1 (racemic) [(±)-Epinephrine hydrochloride] | 39.7% | 47.2% | 51.6%
47 | C[N+](C)(C)CCOP(=O)(O)OP(=O)([O-])OC[C@H]1O[C@@H](n2ccc(N)nc2=O)[C@H](O)[C@@H]1O [Cytidine 5'-diphosphocholine sodium salt hydrate] | 37.1% | 38% | 58.3%
48 | Cc1[nH]c(=O)c(C#N)cc1-c1ccc2nccn2c1 [Olprinone hydrochloride] | 56.7% | 50.5% | 62.7%
49 | C[C@](N)(Cc1ccc(O)c(O)c1)C(=O)O [L-alpha-Methyl DOPA] | 52.7% | 52.4% | 61%
50 | OCCN1CCN(CCCN2c3ccccc3Sc3ccc(Cl)cc32)CC1 [Perphenazine] | 28.6% | 21% | 48.7%
51 | COc1cc(N)c(Cl)cc1C(=O)OCCN1CCCCC1 | 28.9% | 35.3% | 55.5%
52 | Cc1ccccc1/C=C/C1=NCCN1 [Metrazoline oxalate] | 50.9% | 45.4% | 67.4%
53 | CC(=O)OC[C@H]1O[C@@H]([S-])[C@H](OC(C)=O)[C@@H](OC(C)=O)[C@@H]1OC(C)=O.CCP(CC)CC.[Au+] [Auranofin] | 10.5% | 8.74% | 33.2%
54 | CCCCS(=O)(=O)N[C@@H](Cc1ccc(OCCCCC2CCNCC2)cc1)C(=O)O [Tirofiban hydrochloride monohydrate] | 52.5% | 36.1% | 65.9%
55 | CC(C)C[C@H](NC(=O)[C@H](O)[C@H](N)Cc1ccccc1)C(=O)O [Epibestatin hydrochloride] | 42.1% | 45.9% | 70.3%

Quoted at random: two records from the list
Row | Compound | general growth inhibition [1] | growth inhibition [2] | growth inhibition [3]
45 | Nc1nc2c(nc(Br)n2C2OC3COP(=O)(O)O[C@@H]3C2O)c(=O)[nH]1 (stereo not given in full) [8-Bromo-cGMP sodium] | 53.5% | 36.7% | 60.2%
51 | COc1cc(N)c(Cl)cc1C(=O)OCCN1CCCCC1 | 28.9% | 35.3% | 55.5%
